Experimental data taken from patent US7125849B2, “Peptide-based angiogenesis inhibitors and methods of use thereof” (The Scripps Research Institute, priority 2003, dated 2006).
Entries after “also recorded” stand apart in the source; their conditions may differ. Not every detail of the peptide structures is certain; ends, links or a residue may be inferred. No end group written: not given here.

How the values were obtained:
[1] = tested on: chorioallantoic membrane (CAM) of chick embryos; test: Chick CAM in vivo angiogenesis assay (bFGF-induced); settings: bFGF filters, examined 3 days later, compared to untreated filters, FIG. 6
Protocol: Chick Cam Assays. In vivo angiogenesis assays were performed essentially as previously described by Brooks, et al., Cell, 1994, 79:1157–1164, the relevant disclosures of which are incorporated herein by reference. Filter discs saturated with 1.0 ug/ml bFGF were placed on the chorioallantoic membranes (CAMs) of 10-day-old chicken embryos, immediately followed by daily topical addition of either a PRO inhibitory peptide (20 μgs) or a control peptide ([…]) in 20 μl of fibroblast growth medium (FGM). After 72 hours, the filter discs and associated CAM tissue were harvested and quantified. Angiogenesis was assessed as the number of visible blood vessel branch points within the defined area of the filter discs. At least 20 CAMs were used for each treatment.
New blood vessels invade the filter dishes within 2–5 days, and angiogenesis can be readily detected. Filters without any additions, with control or with the PRO compound of Example 1 were implanted and examined 3 days later.

endothelial cells = test: Contractility on flexible silicone rubber substrates (wrinkle assay); assay type: cell-based; settings: about 10 μM, FIG. 4
Text: Contractility. To visualize cell contractility, flexible rubber substrates were generated as described by Bussolino et al., J. Biol. Chem., 1989, 264:18284–18287. Briefly, silicone rubber (polydimethylsiloxane), having a viscosity of about 10000 centistokes (Dow Corning Co.) was applied to the coverslip at the bottom of 35 mm tissue culture dishes and coated with a thin layer of gold-palladium using a Hummer VI sputter coater, which polymerized a thin layer of silicon rubber. The surface was additionally coated with about 2 μg/ml of fibronectin (FN). Treated and un-treated endothelial cells were plated on the rubber substrate and allowed to adhere. Cells that had wrinkled the substrate beneath were visualized for about 4 hours and then scored by time-lapse phase contrast microscopy. Following this period, the cells were treated with Cytochalasin D (about 1 μg/ml) (Molecular Probes) to release all wrinkles that were due to actin-dependent cell tension.
To examine effects on contractility, cells were plated on elastic substrata, as described above, that can be pulled into wrinkles by cell-generated forces.

HMEC-1 cells = test: Endothelial cell migration by time lapse imaging; settings: FIG. 3C
Protocol: Microscopy. To assay migration, HMEC-1 cells were treated with various concentrations of either PRO polypeptide or mutant peptide prior to plating. Cells were plated on coverslips coated with about 2 μg/ml of fibronectin (FN). Dishes containing coverslips were prepared as described by Kiosses et al., and maintained at a temperature of about 37° C., under an atmosphere containing about 5% carbon dioxide as described by Schwartz, J. Cell Biol., 1993, 120:1003–1010. The cells were viewed with a Nikon DiaPhot Microscope equipped with a SenSys cooled CCD video camera linked to a Silicon Graphics workstation running the Inovision ISEE software program. At the end of the experiment, images of each cell were outlined and the centroid (cell center) calculated. Displacement of the centroid was then used to determine movement of the cell over time. Statistical analysis was performed using Microsoft EXCEL statistics software. Approximately 50 cells were filmed and tracked per experiment, with at least 3 independent experiments for both the PRO and the mutant peptide. Results were expressed as means±standard error of the mean. The Students t-test was used to determine whether the observed differences were statistically significant (p=0.05).

YGRKKRRQRRRGKPPAPPMRNTSTM [SEQ ID NO: 4]
Angiogenesis in CAM (vascular branch points) [1]: substantially inhibited angiogenesis | Cell contractility (wrinkles of elastic substratum) (endothelial cells): caused a release of wrinkles; also recorded: consistent and significant inhibition of contractility | Concentration of nearly maximal inhibition of migration (HMEC-1 cells): 20 µg/mL | Half-maximal inhibition of migration (HMEC-1 cells): approximately 5 μg/ml | IC50 (HMEC-1 cells; read-out: Half-maximal inhibition of migration): ~2000 nM
